Results on 19 compounds are retold here after PubChem BioAssay AID248 (DTP/NCI, 2004).

For this experiment, the system named is L1210 leukemia ip in BDF1 mice, survival T/C. Nature of the experiment: NCI In Vivo Anticancer Drug Screen. Data for tumor model L1210 Leukemia (intraperitoneal) in B6D2F1 (BDF1) mice. The following applies: higher T/C = longer survival.
[1] abbreviates: T/C endpoint: mean survival time, dose: 400.0 mg/kg/injection, schedule: Q01DX001 (ip), vehicle: saline.
Setting [2] is: T/C endpoint: mean survival time, dose: 400.0 mg/kg/injection, schedule: Q04DX003 (ip), vehicle: saline with Tween-80.
Setting [3] is: T/C endpoint: mean survival time, dose: 400.0 mg/kg/injection, schedule: Q01DX009 (ip), vehicle: saline with Tween-80.
Where [4] appears, read: T/C endpoint: mean survival time, dose: 260.0 mg/kg/injection, schedule: Q04DX003 (ip), vehicle: saline.
Setting [5] is: T/C endpoint: mean survival time, dose: 200.0 mg/kg/injection, schedule: Q01DX001 (ip), vehicle: saline.

The list is a part of this screen's results and no random one: it gathers tests that were run many times, whatever their T/C, doses with no T/C, and many T/C values between a quarter and a half above the control. Other doses and runs of a compound stand elsewhere. T/C: endpoint of the treated group in % of that of the vehicle group. Some entries give survivors of the animals treated and no T/C: the source holds a T/C of zero for them, seemingly a mark for toxic or unscored doses. Some survivor counts are full or nearly so, which does not show that the dose was tolerated: the source hardly ever lists a survival T/C far under the control, and the zero likely stands for such cases as well. Survivors were counted at the toxicity check, usually on the fifth day, unless a day is given; later deaths do not show. Schedules are NCI's codes, taken here to give the interval after Q, in days (D) or hours (H), and the number of doses after X. Some schedule codes hold Z or #, which are not explained here. Some doses were run more than once; the results are listed from low to high. For survival time, this PubChem deposit counts one and a half times the control or more as active, and values a quarter to a half above the control carry no call in these data; other NCI protocols may use other cut-offs. Some T/C values are followed by the survivors on the day toxicity was checked, most often the fifth; without a count, all were alive then.

In the case of `Nc1nc2c(ncn2-c2ccc(OCCCc3ccccc3)cc2)c(=O)[nH]1`, the survivor count is on record as 6 of 6 (T/C endpoint: mean survival time, dose: 12.5 mg/kg/injection, schedule: Q01DX001 (ip), vehicle: saline with Tween-80); 6 of 6 (T/C endpoint: mean survival time, dose: 50.0 mg/kg/injection, schedule: Q01DX001 (ip), vehicle: saline with Tween-80); 6 of 6 (T/C endpoint: mean survival time, dose: 100.0 mg/kg/injection, schedule: Q01DX001 (ip), vehicle: saline with Tween-80).

`COC(=O)C1C(O)CC2CCC1[N+]2(C)C` (configuration not stated): the survivor count under setting [1] is given as 0 of 6.

Consider `CC(C)N(CC#N)C(C)C`, for which the survivor count (T/C endpoint: mean survival time, dose: 1.0 mg/kg/injection, schedule: Q01DX009 (ip), vehicle: saline with Tween-80) was 0 of 6.

Regarding `CCCCCCCCC[n+]1cccc(C(N)=O)c1`, the survivor count runs as follows: (T/C endpoint: mean survival time, dose: 200.0 mg/kg/injection, schedule: Q04DX003 (ip), vehicle: saline with Tween-80) 0 of 6; under setting [2], 0 of 6.

With `CCC(=O)Nc1cccc(OC(=O)NC(C)C)c1`, under setting [3], the survivor count is reported as 5 of 6.

For the compound `CCNC(=O)N(C)Cc1ccc(Cl)cc1`, the survivor count under setting [3] is 0 of 6.

Turning to `COC(=O)C1=CO[C@H](C)[C@@H]2CN3CCc4c([nH]c5ccccc45)[C@@H]3C[C@H]12`, the survivor count is 6 of 6 (T/C endpoint: mean survival time, dose: 9.0 mg/kg/injection, schedule: Q01DX Z (ip), vehicle: carboxymethylcellulose (CMC)); 6 of 6 (T/C endpoint: mean survival time, dose: 35.0 mg/kg/injection, schedule: Q01DX Z (ip), vehicle: carboxymethylcellulose (CMC)); 6 of 6 (T/C endpoint: mean survival time, dose: 70.0 mg/kg/injection, schedule: Q01DX Z (ip), vehicle: carboxymethylcellulose (CMC)).

`O=C(Nc1ccc(NC(=O)Nc2ccc(C3=NCCN3)cc2)cc1)Nc1ccc(C2=NCCN2)cc1`: the survivor count (T/C endpoint: mean survival time, dose: 375.0 mg/kg/injection, schedule: Q01DX Z (ip), vehicle: carboxymethylcellulose (CMC)) is on record as 3 of 6.

Take `COc1cccc2c1C(=O)c1c(O)c3c(c(O)c1C2=O)C[C@@](O)(/C(C)=N/NC(=O)c1ccccc1)C[C@@H]3OC1CC(N)C(O)C(C)O1` (some centres not stated): the T/C by setting is: (T/C endpoint: mean survival time, dose: 2.0 mg/kg/injection, schedule: Q04DX003 (ip), vehicle: water) 127 % of control; (T/C endpoint: mean survival time, dose: 4.0 mg/kg/injection, schedule: Q04DX003 (ip), vehicle: water) 139 % of control; (T/C endpoint: mean survival time, dose: 8.0 mg/kg/injection, schedule: Q04DX003 (ip), vehicle: water) 145 % of control; (T/C endpoint: median survival time, dose: 0.5 mg/kg/injection, schedule: Q03HX008 (ip), vehicle: water) 126 % of control; (T/C endpoint: median survival time, dose: 1.0 mg/kg/injection, schedule: Q03HX024 (ip), vehicle: water) 126 % of control; (T/C endpoint: median survival time, dose: 1.75 mg/kg/injection, schedule: Q03HX008 (ip), vehicle: water) 138 % of control. In addition, the T/C reads like this: (T/C endpoint: median survival time, dose: 2.0 mg/kg/injection, schedule: Q03HX008 (ip), vehicle: water) 136 % of control; (T/C endpoint: median survival time, dose: 2.0 mg/kg/injection, schedule: Q03HX024 (ip), vehicle: water) 147 % of control; (T/C endpoint: median survival time, dose: 2.5 mg/kg/injection, schedule: Q08DX002 (ip), vehicle: water) 126 % of control; (T/C endpoint: median survival time, dose: 5.0 mg/kg/injection, schedule: Q08DX002 (ip), vehicle: water) 126 % of control; (T/C endpoint: median survival time, dose: 5.9 mg/kg/injection, schedule: Q01DX009 (ip), vehicle: water) 127 % of control; (T/C endpoint: median survival time, dose: 10.0 mg/kg/injection, schedule: Q08DX002 (ip), vehicle: water) 147 % of control. Moreover, the T/C (T/C endpoint: median survival time, dose: 20.0 mg/kg/injection, schedule: Q01DX001 (ip), vehicle: water) was 127 % of control. Besides, the survivor count runs as follows: (T/C endpoint: median survival time, dose: 5.9 mg/kg/injection, schedule: Q03HX008 (ip), vehicle: water) 9 of 10; (T/C endpoint: median survival time, dose: 5.9 mg/kg/injection, schedule: Q03HX024 (ip), vehicle: water) 6 of 10; (T/C endpoint: median survival time, dose: 30.0 mg/kg/injection, schedule: Q01DX001 (ip), vehicle: water) 9 of 10.

For `O=C1C=CC(=O)c2c1ccc1c2[nH]c2ccccc21`, the survivor count (T/C endpoint: mean survival time, dose: 400.0 mg/kg/injection, schedule: Q04DX002 (ip), vehicle: saline with Tween-80) is 0 of 3.

Turning to `Cc1ccc(C(=O)c2ccccc2)c(C)c1`, under “T/C endpoint: mean survival time, dose: 200.0 mg/kg/injection, schedule: Q01DX001 (ip), vehicle: carboxymethylcellulose (CMC)”, the survivor count is 4 of 4.

Take `NC(=S)Nc1ccccc1Cl`: the survivor count under setting [1] is reported as 0 of 4.

With `N#CC1(C(O)c2ccccc2)C=Cc2ccccc2N1C(=O)c1ccccc1` (configuration not stated), under “T/C endpoint: mean survival time, dose: 200.0 mg/kg/injection, schedule: Q01DX001 (ip), vehicle: steroid suspending solution”, the survivor count is given as 6 of 6.

Turning to `CCN(CCO)CCNc1ccc(C)c2sc3ccccc3c(=O)c12`, the T/C by setting is: (T/C endpoint: mean survival time, dose: 26.0 mg/kg/injection, schedule: Q03HX024 (ip), vehicle: saline) 136 % of control; (T/C endpoint: mean survival time, dose: 40.0 mg/kg/injection, schedule: Q03HX024 (ip), vehicle: saline) 140 % of control; (T/C endpoint: mean survival time, dose: 78.0 mg/kg/injection, schedule: Q01DX001 (ip), vehicle: saline) 141 % of control; (T/C endpoint: mean survival time, dose: 90.0 mg/kg/injection, schedule: Q01DX009 (ip), vehicle: saline) 145 % of control; (T/C endpoint: mean survival time, dose: 260.0 mg/kg/injection, schedule: Q01DX001 (ip), vehicle: saline) 148 % of control [9 of 10 alive]; under setting [4], 135 % of control [7 of 10 alive]. Further, the survivor count was 9 of 9 (T/C endpoint: mean survival time, dose: 60.0 mg/kg/injection, schedule: Q03HX024 (ip), vehicle: saline); 9 of 10 (T/C endpoint: mean survival time, dose: 90.0 mg/kg/injection, schedule: Q03HX024 (ip), vehicle: saline); 10 of 10 (T/C endpoint: mean survival time, dose: 135.0 mg/kg/injection, schedule: Q03HX024 (ip), vehicle: saline); 9 of 10 under setting [4]; 4 of 10 (T/C endpoint: mean survival time, dose: 390.0 mg/kg/injection, schedule: Q01DX001 (ip), vehicle: saline); 3 of 10 (T/C endpoint: mean survival time, dose: 390.0 mg/kg/injection, schedule: Q04DX003 (ip), vehicle: saline). Moreover, the survivor count under setting [1] was 0 of 4 and 3 of 10; the survivor count (T/C endpoint: mean survival time, dose: 400.0 mg/kg/injection, schedule: Q04DX003 (ip), vehicle: saline) is reported as 0 of 10; the survivor count (T/C endpoint: mean survival time, dose: 600.0 mg/kg/injection, schedule: Q01DX001 (ip), vehicle: saline) is given as 0 of 10; the survivor count (T/C endpoint: mean survival time, dose: 600.0 mg/kg/injection, schedule: Q04DX003 (ip), vehicle: saline) is 0 of 10; the survivor count (T/C endpoint: mean survival time, dose: 900.0 mg/kg/injection, schedule: Q01DX001 (ip), vehicle: saline) was 0 of 10; the survivor count (T/C endpoint: mean survival time, dose: 900.0 mg/kg/injection, schedule: Q04DX003 (ip), vehicle: saline) is given as 0 of 10. The survivor count (T/C endpoint: mean survival time, dose: 1350.0 mg/kg/injection, schedule: Q01DX001 (ip), vehicle: saline) is 0 of 10 and the survivor count (T/C endpoint: mean survival time, dose: 1350.0 mg/kg/injection, schedule: Q04DX003 (ip), vehicle: saline) was 0 of 10.

In the case of `CCc1nc(NN)nc(CC)c1-c1ccccc1O`, the survivor count (T/C endpoint: mean survival time, dose: 400.0 mg/kg/injection, schedule: Q04DX002 (ip), vehicle: Klucel (hydroxypropylcellulose) (HPC)) was 1 of 3.

For the compound `CCOP(=S)(OCC)N1c2ccccc2Sc2ccccc21`, the survivor count under setting [2] is 2 of 6.

Take `CCOc1ccc(C(=O)C(C)CN2CCN(C)CC2)cc1` (configuration not stated): the survivor count is recorded as 0 of 4 under setting [5] and 0 of 4 under setting [1].

As for `C/C(N)=C\C#N`, the survivor count reads like this: (T/C endpoint: mean survival time, dose: 100.0 mg/kg/injection, schedule: Q01DX001 (ip), vehicle: saline) 1 of 4; under setting [5], 2 of 4; under setting [1], 0 of 4.

Consider `CSc1ncc(C(N)=O)c(N=C(C)C)n1`, for which the survivor count is 2 of 6 (T/C endpoint: mean survival time, dose: 200.0 mg/kg/injection, schedule: Q04DX003 (ip), vehicle: Klucel (hydroxypropylcellulose) (HPC)) and 0 of 6 (T/C endpoint: mean survival time, dose: 400.0 mg/kg/injection, schedule: Q04DX003 (ip), vehicle: Klucel (hydroxypropylcellulose) (HPC)).
